Measurements taken from PMC3631101.
Changes are numbered by the printed parent chain. No constants are given. Whether binding was seen depends on the method and setting. Some entries that bind do so weakly or less than the wild type. Where a sequence is shown, tags or fusion partners need not be part of it.

By UniProt entry, the sequences of proteins in these tests, tags left out. Where a name states a change or a piece, a line headed by the entry shows the natural chain unless it says otherwise.
UniProt P29311: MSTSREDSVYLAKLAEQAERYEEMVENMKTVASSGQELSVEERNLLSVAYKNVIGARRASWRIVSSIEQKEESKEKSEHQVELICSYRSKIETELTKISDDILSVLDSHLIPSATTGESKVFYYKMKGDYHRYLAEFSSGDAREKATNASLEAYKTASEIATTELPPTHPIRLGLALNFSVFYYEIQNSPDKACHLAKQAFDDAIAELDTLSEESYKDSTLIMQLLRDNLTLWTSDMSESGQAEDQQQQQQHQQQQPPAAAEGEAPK

What was measured:
[1] = biological target: T1, Ser358Ala HA–SIK2 adenovirally expressed in primary rat adipocytes (human) (UniProt Q9H0K1); assay: far-Western, overlay or dot blot; SIK2 or HA–SIK2 immunoprecipitated from stimulated adipocytes, resolved by SDS/PAGE and blotted; membranes incubated overnight with 5 μg/ml recombinant yeast His–14-3-3 (BMH1/2) in TBS-T with 5% BSA and 0.5 M NaCl, washed in TBS-T with 0.5 M NaCl; detected with an anti-His antibody; both purified
T1 sequence: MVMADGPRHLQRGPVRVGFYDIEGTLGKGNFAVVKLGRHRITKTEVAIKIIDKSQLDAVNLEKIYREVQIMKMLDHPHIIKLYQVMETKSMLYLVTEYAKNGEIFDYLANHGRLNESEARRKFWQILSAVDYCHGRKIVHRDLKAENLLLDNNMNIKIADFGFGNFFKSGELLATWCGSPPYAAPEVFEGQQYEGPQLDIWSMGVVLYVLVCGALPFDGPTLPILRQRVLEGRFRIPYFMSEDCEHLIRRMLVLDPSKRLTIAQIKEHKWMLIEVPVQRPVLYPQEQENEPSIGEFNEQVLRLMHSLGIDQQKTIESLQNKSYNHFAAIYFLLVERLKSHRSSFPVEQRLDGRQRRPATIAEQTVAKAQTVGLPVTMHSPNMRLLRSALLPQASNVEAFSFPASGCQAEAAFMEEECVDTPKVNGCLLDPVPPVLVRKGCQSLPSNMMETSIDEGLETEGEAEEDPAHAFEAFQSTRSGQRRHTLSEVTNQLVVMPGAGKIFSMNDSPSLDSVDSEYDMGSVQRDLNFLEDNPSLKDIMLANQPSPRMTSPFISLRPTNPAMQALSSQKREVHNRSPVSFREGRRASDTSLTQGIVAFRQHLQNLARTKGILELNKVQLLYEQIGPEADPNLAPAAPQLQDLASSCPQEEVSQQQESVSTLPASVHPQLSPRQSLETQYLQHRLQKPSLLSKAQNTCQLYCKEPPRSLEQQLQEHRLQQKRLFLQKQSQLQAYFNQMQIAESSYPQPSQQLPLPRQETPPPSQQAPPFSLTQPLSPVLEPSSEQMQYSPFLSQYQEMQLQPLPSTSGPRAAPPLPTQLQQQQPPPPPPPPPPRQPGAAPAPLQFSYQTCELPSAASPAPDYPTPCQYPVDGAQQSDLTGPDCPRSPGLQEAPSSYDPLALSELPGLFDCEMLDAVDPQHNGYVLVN

[2] = biological target: T2, Ser587Ala HA–SIK2 adenovirally expressed in primary rat adipocytes (human) (UniProt Q9H0K1); assay: as above
T2 sequence: T1 sequence with A358S, S587A

recombinant yeast His–14-3-3 (BMH1/2) (from UniProt P29311 1-267; P34730 1-273)
binding [1]: no binding | binding [2]: binds
